Measurements reported in PubChem BioAssay AID1259308 (NCATS, 2017).
The deposit covers about 59,000 reagents; this is a random part of them. Of all reagents, about 1,510 (2.6%) got an active call. 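Calls use total luciferase alone and ignore viability, so some active siRNAs may act by altering cell number.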 Unmarked entries are inactive. The numbers tell different reagents against one gene apart. Further read-outs or replicates are left out here.

- Aim: 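Knock-downs that increase output of a recombinant reporter protein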 (primary screen)
- Cell system: human HEK293 embryonic kidney cells stably expressing firefly luciferase (HEK-CMV-Luc2-Hygro)
- Reagent: single siRNA against human genes, 0.8 pmol siRNA per well
- Timing: 72 h
- Detection: 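Reporter luminescence and viable-cell signal on separate replicate plates, given as percent of non-targeting control and median/MAD z-scores, plus per-cell luciferase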
- Reading the numbers: total luciferase, z-score and total luciferase, % of control: higher = more reporter protein produced; luciferase per cell, z-score: higher = more reporter output per viable cell
- Active means: 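An siRNA counts as active if its total luciferase robust z-score exceeds 3; genes with two or more such siRNAs out of three were retested with fresh siRNAs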
- Calls: active = raised luciferase; inactive = no rise

| gene symbol | siRNA no. | total luciferase, z-score | total luciferase, % of control | luciferase per cell, z-score |
| --- | --- | --- | --- | --- |
| RNF128 | 1 | -0.611 | 69.7 | -0.459 |
| RNF128 | 2 | -0.377 | 74.4 | -0.824 |
| RNF128 | 3 | 1.21 | 106 | 1.01 |
| CCDC159 | 1 | -0.74 | 67.2 | -1.57 |
| CCDC159 | 2 | -0.533 | 71.3 | -0.883 |
| CCDC159 | 3 | 1.21 | 106 | 0.59 |
| CHRNB1 | 1 | 3.46 (active) | 151 | 3.4 |
| CHRNB1 | 2 | 0.0837 | 83.6 | 0.179 |
| CHRNB1 | 3 | 1.71 | 116 | 0.755 |
| SPART-AS1 | 1 | -0.498 | 72 | -0.338 |
| SPART-AS1 | 2 | -0.521 | 71.5 | -0.168 |
| SPART-AS1 | 3 | 0.361 | 89.1 | 0.334 |
| VMA22 | 1 | -0.711 | 67.7 | 0.264 |
| VMA22 | 2 | 0.144 | 84.7 | 0.328 |
| VMA22 | 3 | -0.521 | 71.5 | -0.377 |

Hits, of those listed so far:
| gene symbol | siRNA no. | total luciferase, z-score | total luciferase, % of control | luciferase per cell, z-score |
| --- | --- | --- | --- | --- |
| CHRNB1 | 1 | 3.46 (active) | 151 | 3.4 |

Further reagents follow.
| gene symbol | siRNA no. | total luciferase, z-score | total luciferase, % of control | luciferase per cell, z-score |
| --- | --- | --- | --- | --- |
| GSTM3 | 1 | -0.55 | 71 | -0.502 |
| GSTM3 | 2 | -0.229 | 77.3 | 0.299 |
| GSTM3 | 3 | -0.837 | 65.2 | -1.01 |
| CLCN3 | 1 | 0.883 | 99.5 | 1.59 |
| CLCN3 | 2 | 0.374 | 89.3 | 0.245 |
| CLCN3 | 3 | 2.18 | 125 | 1.74 |
| TRAPPC6A | 1 | -1.36 | 54.8 | -0.972 |
| TRAPPC6A | 2 | -1.27 | 56.6 | -0.733 |
| TRAPPC6A | 3 | -0.573 | 70.5 | -0.93 |
